Values from PubChem BioAssay AID686937 (Drosophila RNAi Screening Center, 2013)

Aim: 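Genes whose loss weakens secretory pathway function in fly cells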 (primary screen)
System: Drosophila S2 cells expressing secreted horseradish peroxidase
Knock-down reagent: long dsRNA against Drosophila genes
Time to read-out: about 5.5 days (5 days dsRNA, then 12 h reporter induction)
Challenge: reporter expression induced after 5 days of dsRNA, read 12 h later; inducer not stated
Measurement: 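Chemiluminescent measurement of peroxidase in the medium 12 h after reporter induction, following 5 days of dsRNA, given as a z-score per plate; higher means more secretion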
Scale: z-score: higher = more reporter secreted into medium
The deposit covers about 23,000 reagents; shown is a random part of those with a known target gene and a result. 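Reduced-secretion tags in replicate 1 do not always agree with the z-scores; no criterion for assigning the tags was given.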 The numbers tell different reagents against one gene apart. A plus sign joins genes that one reagent is predicted to hit. Further read-outs or replicates are left out here. Not stated in the record: the amount of reagent.

no.	gene	reagent	z-score, replicate 1
1	Ktl	1	0.25
2	Ama	1	0.22
3	a5	1	0.21
4	sunz	1	0.28
5	Bacc	1	0.25
6	Oscillin	1	0.29
7	neo	1	0.37
8	BCAS2	1	-0.56
9	Spn77Ba	1	0.14
10	fipi	1	-0.39
11	BBS9	1	0.55
12	Ilp2	1	0.04
13	crc	1	-0.15
14	CG15706	1	0.25
15	CaMKII	1	0.69
16	beta3GalTII	1	0.4
17	Cep97	1	0.34
18	Membrin	1	-1.52
19	CG15864	1	0.2
20	CG15071	1	0.22
21	Prx3	1	0.34
22	CG7407	1	0.5
23	Mal-A4	1	0.32
24	svr	1	0.38
25	svr	2	0.32
26	Sac1	1	0.25
27	porin	1	0.51
28	TyrRS	1	0.11
29	Ctu1	1	0.12
30	CG7058	1	0.25
31	SA1	1	0.4
32	Tsp26A	1	0.13
33	asl	1	0.44
34	CG18682 (retired record)	1	-1.67
35	CG18682 (retired record)	2	0.35
36	Hydr2	1	0.37
37	CG5897	1	0.28
38	zfh2	1	-0.42
39	Fum3	1	0.36
40	Ir75b	1	0.3
41	RIOK1	1	0.25
42	CG12511	1	0.49
43	rt	1	0.08
44	Gem4b + Gem4c	1	0.38
45	otp	1	0.37
46	otp	2	0.26
47	Uba1	1	-0.19
48	Rca1	1	-0.75
49	DptA	1	0.26
50	RabGGTb	1	0.41
51	Arp6	1	0.43
52	eIF2Balpha	1	0.22
53	NfI	1	0.52
54	RhoGAPp190	1	0.72
55	RhoGAPp190	2	0.2
56	Vsx2	1	-1.57
57	Vsx2	2	0.46
58	Vsx2	3	0.16
59	Vsx2	4	0.31
60	CG32487	1	-0.21
61	east	1	0.47
62	CG33285	1	-0.77
63	CCKLR-17D1	1	-0.21
64	CCKLR-17D1	2	0.61
65	CCKLR-17D1	3	0.25
66	CG15888	1	0.47
67	Grip128	1	0.05
68	CG7065	1	0.59
69	CG31715	1	1.22
70	p115	1	-0.6
71	Nach	1	-1.25
72	ChAT	1	0.11
73	ChAT	2	0.19
74	ChAT	3	0.31
75	CG31038	1	0.28
76	CG31038	2	0.2
77	CG31038	3	-0.08
78	Flo2	1	-0.27
79	Flo2	2	0.09
80	Hrb98DE	1	-0.19
81	Elp5	1	0.14
82	CG3119	1	-0.04

7 neighbouring entries from above:
no.	gene	reagent	z-score, replicate 1
24	svr	1	0.38
25	svr	2	0.32
26	Sac1	1	0.25
27	porin	1	0.51
28	TyrRS	1	0.11
29	Ctu1	1	0.12
30	CG7058	1	0.25
